Values from PubChem BioAssay AID743454 (Peter MacCallum Cancer Centre, 2014).
Purpose: 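Knock-downs lowering viability or raising caspase 3/7 activity in vorinostat-treated resistant cells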 (primary screen). System: human HCT116-VR colon cancer cells, selected for vorinostat resistance. Reagents: siRNA pool against human genes, 40 nM siRNA pool. Time to read-out: vorinostat for 24 h, read-out about 72 h after transfection. Conditions: vorinostat at 2.5 µM final. Read-out: 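Two measures, CellTiter-Fluor viability and luminescent caspase 3/7 activity, each as fold change against same-plate mock wells, mean of duplicates, then screen-wide robust z-score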. Direction: viability robust z-score: higher = more viable cells than screen typical; caspase robust z-score: higher = more caspase 3/7 activity than screen typical. Rule for the call: 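a knock-down is a hit when classed RV1 or RV2 for lowered viability, or CA1 or CA2 for caspase activation; those lethal without drug were dropped; hits were retested singly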.
Here is a random part of about 18,000 reagents. Of all reagents, 450 (2.5%) were called active. 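Single biological run; no consistent viability z cut-off exists, so the class columns, not z-scores, define the calls.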 Entries without a mark were called inactive. No sequences are given here.

gene knocked down	viability hit class	caspase hit class	viability robust z-score	caspase robust z-score
KRT74	no change	no change	0.8	0.7
MPC2	no change	no change	-0.38	0.08
BABAM2	no change	no change	-0.66	0.14
FOSL1	no change	no change	1.15	0.72
EIF2S1	RV2 (reduced viability) (active)	no change	-3.27	-0.14
ZNF512	no change	no change	0.29	-0.37
UAP1L1	no change	no change	0.04	-0.74
CXCL12	no change	no change	-1.07	0.98
ZNF790	no change	no change	-1.12	1.66
EXT2	no change	no change	-0.17	0.76
SLC9A8	no change	no change	0.6	1.55
ARHGAP24	no change	no change	0.74	0.08
VBP1	no change	no change	-0.52	-1
BNC1	no change	no change	0.42	-0.7
ADPRHL1	no change	no change	1.46	-0.31
TTC14	no change	no change	-0.73	-1.25
TM6SF1	no change	no change	-0.84	-0.78
ATP5IF1	no change	no change	-1.19	0.73
TMEM121B	no change	no change	-2.76	4.52
SLC22A16	no change	no change	-1.48	-1
EEIG1	no change	no change	1.13	-0.36
PRMT3	no change	no change	-0.23	1.5
PQBP1	no change	no change	-0.16	-0.08
COG8	no change	no change	0.07	0.33
CHRM4	no change	no change	0.54	-0.37
KCNK4	no change	no change	-2.24	2.88
PCDH19	no change	no change	0.33	-0.66
SHOC1	no change	no change	0.6	-0.48
LINC02915	no change	no change	0.02	1.17
ZSWIM1	no change	no change	-0.25	0.15
FETUB	no change	no change	1.28	0.06
LILRA3	no change	no change	0.12	0.31
TIMP4	no change	no change	0.54	-0.74
SHKBP1	no change	no change	-0.47	-1.16

Reformatted: results already given
KRT74
- viability hit class: no change
- caspase hit class: no change
- viability robust z-score: 0.8
- caspase robust z-score: 0.7

MPC2
- viability hit class: no change
- caspase hit class: no change
- viability robust z-score: -0.38
- caspase robust z-score: 0.08

BABAM2
- viability hit class: no change
- caspase hit class: no change
- viability robust z-score: -0.66
- caspase robust z-score: 0.14

Next records follow:
gene knocked down	viability hit class	caspase hit class	viability robust z-score	caspase robust z-score
FXYD5	no change	no change	0.73	3.26
EPHB3	no change	no change	0.44	2.98
YLPM1	no change	no change	0.99	-0.73
PLEKHG2	no change	no change	0.53	0.12
CAMTA1	no change	no change	-0.37	1.26
CSRNP2	no change	no change	-0.02	0.6
POLR2E	no change	no change	-3.28	4.22
AMY1A	no change	no change	0.8	-0.34
FAM8A1	no change	no change	0.53	-0.66
RGS12	no change	no change	0.62	1.59
TIFA	no change	no change	0.62	-0.13
FCMR	no change	no change	-1.97	0.32
FN3KRP	no change (active)	CA1 (caspase activation)	0.48	5.5
TEX30	no change	no change	1.08	0.58
OSGIN1	no change	no change	-0.24	-0.28
SMYD2	no change	no change	2.41	-0.74
NAA10	no change	no change	-1.29	-0.5
ARSG	no change	no change	-1.27	-0.15
RPP30	no change	no change	-1.08	3.93
MBLAC2	no change	no change	-0.14	4.57
MFSD1	no change	no change	1.35	-1.07
STPG3	no change	no change	-1.82	1.66
C7	no change	no change	-0.26	1.27
SLC6A11	no change	no change	-0.26	0.7
KLF11	no change	no change	0.44	0.45
MYCBP2	no change	no change	-0.39	1.11
SLC25A36	no change	no change	-1	0.06
DCLRE1A	no change	no change	-0.77	0.44
HSF5	no change	no change	0.48	0.03
LANCL3	no change	no change	1.27	-0.32
TWF2	no change	no change	0.83	0.46
TTC36	no change	no change	0.01	1.31
TBC1D17	no change	no change	-0.62	-0.05
RTBDN	no change	no change	-0.63	1.96
AMER1	no change	no change	-1.32	0.42
GFRA3	no change	no change	-1.38	-0.88
PAEP	no change	no change	-0.21	-1.19
RBM15	no change	no change	-1.39	-0.9
F8A2	no change	no change	-1.36	3.81
